The values that follow come from PubChem BioAssay AID2685 (National Center for Advancing Translational Sciences (NCATS), 2010).

A short description of this assay: qHTS Assay for Lipid Storage Modulators in Drosophila S3 Cells.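 As to cell number change: cells counted by Cell Tracker Red CMTPX staining in the red channel.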 The following applies: BODIPY lipid droplet fluorescence, 18-24 h; for cell number change: measured here: cell count max response, cells fed with added oleic acid. In outline: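 Laser-scanning cytometry quantifies lipid droplet accumulation (500–530 nm total intensity; droplet/cell object ratio) in oleic acid-fed (400 uM added) Drosophila S3 cells treated with a concentration series. 20 uM Triacsin C defined 100% inhibition.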
(In qHTS, concentration-response curves come from the screen itself.)

[1] abbreviates: measured here: cell number channel AC50, cells fed with added oleic acid.
The mark [2] stands for this setting: measured here: lipid fluorescence (Fed channel) AC50, cells fed with added oleic acid.

The structures appear in SMILES notation. The list shows a part of the results. Shown are side measurements of this screen, not its main read-out; they come without a call. The list favours compounds with an active or inconclusive main result. Potencies come from curve fits of mixed quality, noted in brackets.

Turning to `CCC1C(=O)Nc2ccccc2N1C(=O)COc1ccccc1` (centres undefined), the cell number change was 10.9%. By AC50 is commonly meant the midpoint of the concentration-response curve, whichever way the signal moves. The low end stands for greater potency, the high end for weaker potency. As for `O=C(CNC(=O)c1ccco1)OCc1ccc(Cl)cc1`, the cell number change is -141%. The AC50 under setting [1] was 32.6 µM [falling, partial curve, poor fit]. Further, under setting [2], the AC50 was 0.58 µM [falling, single point].

As for `C=CCn1c(SCC(=O)c2ccc(O)c(O)c2)nnc1-c1cccc(Cl)c1`, the cell number change was 20%. For the same compound, under setting [2], the AC50 is 1.16 µM [rising, partial curve]. Regarding `O=C(NNC(=O)c1ccc(F)cc1F)c1ccc(-n2cnnn2)cc1`, the cell number change stood at 39.4%. In addition, under setting [1], the AC50 was 29.1 µM [rising, single point]. Take `CCC(C#CCN1CCOCC1)(CC)OCCC#N`: the cell number change was 0.775%. Under setting [2], the AC50 was 29.1 µM [falling, single point]. On to `CN(C)CCC=C1c2ccccc2CCc2ccccc21`, for which the cell number change came to 5.28%. Moreover, under setting [2], the AC50 is 16.4 µM [rising, single point]. For `CC1CN(S(=O)(=O)c2ccc(C(=O)Nc3nccs3)cc2)CC(C)O1` (centres undefined), the cell number change was -21.9%. The AC50 under setting [2] is 1.16 µM [rising, partial curve]. Consider `Cc1ccnc2c1NC(=O)c1cccnc1N2C1CC1`, for which the cell number change was determined as 8.63%. In addition, under setting [2], the AC50 is 4.11 µM [rising, full curve, poor fit]. `CSS(=O)(=O)c1cccc2cccnc12`: the concentration at half-maximal activity (AC50) under setting [2] was 9.2 µM [falling, partial curve].

On to `Cn1c(=O)c2c(nc(Br)n2Cc2nnc(N)s2)n(C)c1=O`, for which the cell number change was 17.8%. In addition, the concentration at half-maximal activity (AC50) under setting [2] is 2.31 µM [rising, partial curve]. For the compound `COc1cc(/C=C/C(=O)O)cc(S(=O)(=O)Nc2ccc3c(c2)CCC3)c1OC`, the cell number change was 7.56%. The AC50 under setting [2] is 29.1 µM [falling, single point]. For the compound `C/C=C/C1=CC(=O)C[C@H](c2ccc(F)cc2)C1`, the cell number change is -32.2%. In addition, the half-maximal activity concentration (AC50) under setting [1] is 29.1 µM [falling, single point]. As for `O=C(COC(=O)c1cccc(S(=O)(=O)N2CCOCC2)c1)Nc1ncc(C(F)(F)F)cc1Cl`, the half-maximal activity concentration (AC50) under setting [2] was 6.51 µM [falling, single point]. For `Cc1cc(C)nc(/N=C(\N)Nc2ccc(OCCC(C)C)cc2)n1`, the cell number change was -55.4%. Also, the concentration at half-maximal activity (AC50) under setting [1] was 8.2 µM [falling, partial curve]. In addition, the AC50 under setting [2] was 29.1 µM [falling, partial curve, poor fit]. With `Clc1ccc2nc(-c3ccccc3)c(CN3CCOCC3)n2c1`, the cell number change is -17.6%. In addition, the AC50 under setting [2] was 16.4 µM [falling, partial curve]. For the compound `COc1cccc(/C=N/NC(=O)C(C)n2nc(C)c([N+](=O)[O-])c2C)c1O` (centres undefined), the cell number change was 4.15%. Besides, the AC50 under setting [2] is 3.66 µM [falling, single point]. For `CC(C)Oc1ccc(C(=O)NC2CCN(Cc3ccccc3)CC2)cc1`, the cell number change was -46.1%. Further, the AC50 under setting [1] is 32.6 µM [falling, partial curve, poor fit]. For `CCCn1cc(SCC(=O)NCc2ccco2)c2ccccc21`, the cell number change worked out at 29.6%. For the same compound, under setting [2], the AC50 was 18.4 µM [rising, single point]. Turning to `O=C(CC(C(=O)N1CCc2ccccc21)n1ccnc1)NCc1ccccc1` (centres undefined), the AC50 is, setting by setting: under setting [1], 0.58 µM [rising, full curve]; under setting [2], 0.103 µM [rising, full curve, poor fit]. As to `CCn1cc(C(=O)N2CCN(c3cccc(Cl)c3)CC2)c2cc(OC)c(OC)cc2c1=O`, the AC50 was 0.82 µM [rising, partial curve] under setting [1] and 1.16 µM [rising, full curve] under setting [2]. As to `CC1C(=O)N2CCCc3cc(S(=O)(=O)NCCc4ccccc4)cc1c32` (centres undefined), the cell number change was 7.92%. In addition, the AC50 under setting [2] is 29.1 µM [falling, single point]. For the compound `OC(Cn1cncn1)(c1ccc(F)cc1)c1ccc(Cl)cc1` (centres undefined), the cell number change turned out to be 6.82%. Further, the AC50 under setting [2] was 0.82 µM [rising, full curve]. Turning to `CCn1c(SCC(=O)N2CCN(c3ccccc3)CC2)nnc1-c1c[nH]c2ccccc12`, the cell number change came to 10.9%. For the same compound, the AC50 under setting [2] is 6.51 µM [rising, single point]. Turning to `COc1cc(NC(=O)COC(=O)c2ccc(C)c(S(=O)(=O)N3CCCCC3)c2)c(C)cc1[N+](=O)[O-]`, the cell number change is -10.6%.

`COc1ccc(NC(=O)CC2(CC(=O)N3CCOCC3)CCCC2)cc1Cl`: the cell number change is -12.4%. Take `Cc1ccc(NC(=O)C2CCN(S(=O)(=O)c3ccc4c(c3)OCCO4)CC2)c(O)c1`: the cell number change is -37%. Further, the AC50 under setting [1] is 5.17 µM [falling, full curve, poor fit]. Also, under setting [2], the AC50 was 6.51 µM [falling, partial curve]. Regarding `Cc1cc(C)nc(N(C#N)CCOc2ccccc2)n1`, under setting [1], the AC50 is 0.461 µM [rising, full curve, poor fit]. Take `COCCCNS(=O)(=O)c1ccccc1`: the cell number change was -23.1%. Besides, the AC50 under setting [2] is 2.91 µM [falling, full curve, poor fit]. For the compound `O=C(COC(=O)c1cnccn1)NCCc1ccc(Cl)cc1`, the cell number change is 1.5%.

Regarding `COc1ccc(O)c(/C=N/N=C/c2cccc([N+](=O)[O-])c2)c1`, the cell number change is -11%. Take `C#C[C@]1(O)CC[C@H]2[C@@H]3CCc4cc(OC5CCCC5)ccc4[C@H]3CC[C@@]21C`: the cell number change is -58.1%. In addition, the AC50 under setting [1] was 16.4 µM [falling, single point]. The half-maximal activity concentration (AC50) under setting [2] is 18.4 µM [falling, single point]. Take `O=C(NC1CCN(S(=O)(=O)c2cccc([N+](=O)[O-])c2)CC1)C1CCCCC1`: the cell number change is -9.4%. The AC50 under setting [2] is 6.51 µM [rising, single point]. In the case of `CC1=CC(C)C2C(=O)N(CCCN(C)C)C(=O)C2C1` (centres undefined), the cell number change is -54.7%. Moreover, the half-maximal activity concentration (AC50) under setting [1] was 20.6 µM [falling, single point]. Regarding `CCCc1ncc(C(=O)c2ccc(OC)cc2)n1C`, the cell number change amounted to 15.6%. As for `COc1cc(-c2c(-c3ccsc3)sc3ccccc23)cc(OC)c1OC`, the cell number change stood at 9.77%. For the same compound, the AC50 under setting [2] was 0.146 µM [rising, full curve]. As for `COc1ccc(NC(C)=O)cc1CNC(=O)COc1c(C)c(C)cc(C)c1C`, the cell number change was 32.9%. The AC50 under setting [1] was 9.2 µM [rising, partial curve]. The AC50 under setting [2] was 14.6 µM [rising, partial curve]. With `Cc1c(C)c2ccc(OCC(=O)NC3CCN(Cc4ccccc4)CC3)c(C)c2oc1=O`, the cell number change is -7.08%. Moreover, the concentration at half-maximal activity (AC50) under setting [2] was 29.1 µM [rising, single point]. Take `Cc1cccc(NC(=O)c2cc(S(=O)(=O)NCc3ccco3)ccc2F)c1C`: the cell number change was -2.51%. Moreover, the concentration at half-maximal activity (AC50) under setting [2] is 0.146 µM [rising, full curve, poor fit]. With `CSc1ccccc1NC(=O)c1onc(C)c1Cl`, the cell number change stood at 6.94%. Besides, the AC50 under setting [1] is 0.146 µM [falling, full curve]. Also, the AC50 under setting [2] is 1.16 µM [falling, full curve].

In the case of `N#CNC(=Nc1ccccc1)SCc1ccc(C(=O)O)cc1`, the cell number change is -14.2%. Under setting [2], the AC50 was 0.461 µM [falling, full curve]. As for `COc1ccc(-c2nnc(SCC(=O)Nc3cc(C)on3)o2)cc1`, the cell number change is -3.66%. Moreover, the AC50 under setting [1] was 0.00461 µM [falling, full curve, poor fit]. Further, the AC50 under setting [2] is 3.66 µM [falling, single point]. For `Nc1c(C(=O)NCc2ccc(Cl)cc2)sc2nc3c(c(C(F)(F)F)c12)CCC3`, the cell number change was -0.707%. Consider `Cc1ccc(NC(=O)CSCC(=O)N=c2sccn2C)cc1`, for which the cell number change turned out to be 24.7%. The AC50 under setting [2] is 1.3 µM [rising, full curve]. As to `O=C(NCCCn1ccnc1)C(=O)NCC1OCCN1S(=O)(=O)c1cc(F)ccc1F` (centres undefined), the cell number change is 22.6%. For the same compound, the AC50 under setting [2] is 13 µM [rising, partial curve]. Consider `Cc1ccc2c(C)nc(Nc3nc(CSc4nc5ccccc5[nH]4)cc(=O)[nH]3)nc2c1`, for which the cell number change was -30.1%. In addition, the AC50 under setting [1] is 5.17 µM [falling, full curve, poor fit]. In addition, under setting [2], the AC50 was 2.59 µM [falling, full curve]. On to `Cc1ccc2nc(-c3ccc(NC(=S)NC(=O)CC(C)C)cc3)sc2c1`, for which the cell number change was -9.59%. The AC50 under setting [1] was 2.31 µM [falling, partial curve]. Moreover, under setting [2], the AC50 is 23.1 µM [falling, partial curve]. Turning to `Cc1cc2cc(CNC(=O)c3ccc(S(=O)(=O)N4CCOCC4)cc3)ccc2n1C`, the cell number change amounted to 18.9%. The AC50 under setting [2] is 0.731 µM [falling, full curve]. With `COc1cc(/C=N/NC(=S)Nc2cccnc2)cc(OC)c1O`, the cell number change is -32.3%. In addition, under setting [1], the AC50 was 2.31 µM [falling, full curve, poor fit]. Moreover, the AC50 under setting [2] was 0.13 µM [falling, full curve, poor fit]. Regarding `CCN(CC)CCCNC(=O)CCn1nc(-c2ccccc2)ccc1=O`, the cell number change amounted to 9.93%. Still for that read-out and setting: for `CCNC(=O)CSc1nnc(C2CC2)n1-c1ccccc1` the value was -5.2%. Regarding `COc1ccc(NC(=O)c2ccc3c(SCC(=O)O)c4c(nc3c2)CCCC4)c(OC)c1`, the cell number change was 13.8%. The AC50 under setting [1] was 4.11 µM [falling, single point]. Besides, the AC50 under setting [2] was 4.61 µM [falling, single point]. Regarding `COC(=O)Oc1nsnc1N1CCOCC1`, the cell number change is -6.51%. For the same compound, the concentration at half-maximal activity (AC50) under setting [1] is 1.3 µM [falling, partial curve]. Also, the AC50 under setting [2] is 16.4 µM [falling, partial curve]. `COc1ccc2c(CC(=O)OCC(=O)Nc3ccc4c(c3)OCO4)coc2c1`: the cell number change was found to be 5.29%. Regarding `CCc1ccc(NC(=O)CSc2ccc(-c3ccccn3)nn2)cc1`, the cell number change was determined as 9.84%. In addition, under setting [2], the AC50 was 2.06 µM [rising, single point]. For the compound `Cc1csc(NC(=O)CCc2c(C)nc3cc(-c4ccc(Cl)cc4)nn3c2C)n1`, the cell number change is -30.9%. Moreover, the AC50 under setting [1] is 23.1 µM [falling, single point]. Moreover, the AC50 under setting [2] is 18.4 µM [falling, single point]. For the compound `CCC(CC)C(=O)c1c[nH]c(C(=O)NCCOC)c1`, the cell number change was -41.4%. Further, under setting [1], the AC50 is 2.59 µM [falling, full curve]. Regarding `COc1ccccc1OCC(=O)Nc1ccc(S(=O)(=O)Nc2cc(C)nc(C)n2)cc1`, the cell number change worked out at 16%. For the compound `Cc1cccc(CC(=O)NCCN2CCOCC2)c1`, the cell number change is -23.2%. Besides, the AC50 under setting [2] is 4.11 µM [rising, full curve]. As to `CCCCn1c(N)c(N(CC)C(=O)CSCC(=O)Nc2ccc(OC)cc2)c(=O)[nH]c1=O`, the cell number change is -21.3%. On to `COc1ccc(NS(=O)(=O)c2cn(C)cn2)cc1OC`, for which the cell number change was 8.87%. Further, the AC50 under setting [2] was 7.31 µM [rising, partial curve]. For `CCOC(=O)c1ccccc1NC(=O)CSc1nc2ccccc2c(=O)[nH]1`, the AC50 under setting [1] was 6.51 µM [falling, single point].
